Reference: PMC8910471, “The Finely Coordinated Action of SSB and NurA/HerA Complex Strictly Regulates the DNA End Resection Process in Saccharolobus solfataricus”
No constants are given. Whether binding was seen depends on the method and setting.

Target: T1, NurA from Saccharolobus solfataricus, labeled with fluorescein 5(6)-isothiocyanate (S. solfataricus) (UniProt Q97WH1)
T1 sequence (chain, labeled with fluorescein 5(6)-isothiocyanate (site not stated)): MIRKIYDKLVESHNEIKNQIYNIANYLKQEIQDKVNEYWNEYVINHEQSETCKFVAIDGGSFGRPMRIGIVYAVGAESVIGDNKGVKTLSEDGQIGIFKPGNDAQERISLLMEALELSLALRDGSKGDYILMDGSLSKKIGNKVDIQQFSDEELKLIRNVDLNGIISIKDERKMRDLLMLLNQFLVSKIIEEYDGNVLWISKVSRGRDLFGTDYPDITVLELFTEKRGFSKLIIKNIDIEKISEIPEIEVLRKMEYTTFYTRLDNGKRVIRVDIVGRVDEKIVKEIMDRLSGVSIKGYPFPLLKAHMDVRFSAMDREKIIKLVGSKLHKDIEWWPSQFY
Assay: FRET or BRET; steady-state fluorescence of purified labeled proteins in solution: NurA labeled with fluorescein 5(6)-isothiocyanate (donor) with increasing concentrations of the partner labeled with rhodamine B (acceptor); excitation 495 nm, emission 500-600 nm, read at 570 nm; buffer 1 mM sodium phosphate pH 7.0 or 10 mM sodium phosphate pH 8.0 (methods); both purified

B1: single-strand binding protein SSB from Saccharolobus solfataricus, labeled with rhodamine B (protein, UniProt Q97W73 1-148)
chain: MEEKVGNLKPNMESVNVTVRVLEASEARQIQTKNGVRTISEAIVGDETGRVKLTLWGKHAGSIKEGQVVKIENAWTTAFKGQVQLNAGSKTKIAEASEDGFPESSQIPENTPTAPQQMRGGGRGFRGGGRRYGRRGGRRQENEEGEEE
modifications: labeled with rhodamine B (site not stated)
binding: no binding
